“And” between values parts separate entries of the source, which are not always exact repeats. Identical values can stand only once. This is one part of the list. Further columns of the screen follow, without active or inactive calls. Most of these compounds were active or inconclusive in the main read-out, so they are no random draw. Words in brackets tell the shape of the fitted curve; partial curves, single points and poor fits give uncertain potencies.
Assay: qHTS Assay for Modulators of Lamin A Splicing
Conditions: HeLa LMNA splicing GFP/RFP minigene ratio, 48 h
Procedure, shortened: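 S3 HeLa stable clones carrying a lamin A-EGFP splicing minigene plus DsRed2 were seeded at 600 cells/well in Opti-MEM with 2% FBS, pin-dosed and incubated 48 h at 37°C. Acumen cytometry (488 nm) gave the GFP/RFP total-intensity ratio.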

[1] = measured here: GFP splicing reporter channel
[2] = measured here: RFP viability control channel

COc1ccc(Cn2c(CNC(=O)c3ccc(N(C)C)cc3)nc3cccnc32)cc1
AC50 [1]: 0.0631 µM [falling, full curve]

COc1ccc2c(CN(C)c3ccccc3)cc(=O)oc2c1
AC50 [2]: 12.6 µM [rising, single point]

C=C(C)COc1ccc(-c2[nH]ncc2-c2ccccc2OC)c(O)c1
AC50 [1]: 31.6 µM [rising, single point]

CCC(=O)N1CCc2cc(S(=O)(=O)NCCC(=O)N3CCc4ccccc4C3)ccc21
AC50 [1]: 17.8 µM [rising, partial curve]
AC50 [2]: 15.8 µM [rising, single point]

CCn1c(=NC(=O)c2ccc3c(c2)OCCO3)sc2c(C)ccc(OC)c21
AC50 [1]: 0.316 µM [rising, partial curve, poor fit]

CCN(CC)c1ccc(NC(=O)/C=C/c2cc(Br)ccc2OC)cc1
AC50 [1]: 15.8 µM [falling, single point]
AC50 [2]: 12.6 µM [falling, single point]

O=C1CN(/N=C\c2ccc([N+](=O)[O-])o2)C(=O)N1
AC50 [1]: 0.00355 µM [falling, full curve]
AC50 [2]: 0.00282 µM [falling, full curve]

Cc1ccc(C)c2[nH]c(=O)c(CN(Cc3ccco3)S(=O)(=O)c3ccc4c(c3)OCCO4)cc12
AC50 [2]: 31.6 µM [rising, single point]

Cc1ccc(OCC(=O)Nc2ccc(OCc3cc(=O)n4cccc(C)c4n3)cc2)cc1C
AC50 [2]: 35.5 µM [falling, single point]

CCn1c(-c2csc(-c3ccccc3)n2)n[nH]c1=S
AC50 [1]: 14.1 µM [rising, single point]

OCCC1CN(C2CCSCC2)CCN1C1CCCC1 (stereo not given)
AC50 [2]: 0.501 µM [falling, full curve, poor fit]

Clc1ccc(OCCOCCN2CCc3ccccc3C2)c(Cl)c1
AC50 [2]: 35.5 µM [rising, single point]

O=C(O)CCCCCCCC(=O)O
AC50 [1]: 0.0562 µM [falling, full curve, poor fit]
AC50 [2]: 5.01 nM [falling, full curve, poor fit] and 100 nM [falling, full curve]

O=C(NNC(=S)Nc1cccc(C(F)(F)F)c1)c1ccccc1Cl
AC50 [2]: 12.6 µM [rising, partial curve]

CCOc1cccc(=O)c2c(C)n(C)c(C)c12
AC50 [2]: 11.2 µM [rising, partial curve]

Clc1ccc(CNc2ccccc2NCc2ccc(Cl)nc2)cn1
AC50 [1]: 3.98 µM [rising, partial curve]

COc1ccc(N2CCN(C(CNC(=O)C(=O)NCCC3=CCCCC3)c3ccco3)CC2)cc1 (stereo not given)
AC50 [2]: 35.5 µM [rising, single point]

CCOC(=O)C1(Cc2ccccc2)CCN(Cc2cc(=O)c3ccccc3[nH]2)CC1
AC50 [1]: 3.98 µM [falling, full curve]
AC50 [2]: 3.55 µM [falling, full curve]

CCOc1ccc(OCC)c(NC(=O)CSc2nc3cccnc3n2C)c1
AC50 [1]: 14.1 µM [rising, partial curve]
AC50 [2]: 22.4 µM [rising, partial curve]

CCC1CSC(Nc2ccc(C(=O)/C=C/c3ccc(OC)c(OC)c3)cc2)=N1 (stereo not given)
AC50 [1]: 1 µM [rising, partial curve]
AC50 [2]: 0.355 µM [rising, full curve]

CCOc1ccc2nc(SCCNS(=O)(=O)c3ccccc3)sc2c1
AC50 [1]: 35.5 µM [rising, single point]
AC50 [2]: 35.5 µM [rising, single point]

COc1ccc(NC(=S)NNC(=O)C2CC2c2ccc(C)cc2)cc1 (stereo not given)
AC50 [1]: 35.5 µM [rising, single point]
AC50 [2]: 22.4 µM [rising, single point]

CN(C)c1ccc(N=Cc2nc(-c3ccccc3)oc2OC(=O)c2ccccc2)cc1
AC50 [1]: 35.5 µM [falling, single point]

CCOC(=O)c1[nH]c(C)c(C(=O)NC2CCN(C(=O)OCC)CC2)c1C
AC50 [1]: 12.6 µM [rising, single point]
AC50 [2]: 12.6 µM [rising, single point]

COCCn1c(SCC(=O)NNC(=O)c2ccc(OC)c(OC)c2)nc2ccccc2c1=O
AC50 [2]: 6.31 µM [rising, single point]

COc1cccc(-c2nn(C)c3sc(C(=O)NCc4ccccn4)cc23)c1
AC50 [2]: 22.4 µM [rising, single point]

O=C(N/N=C/c1cccs1)c1cc(-c2ccncc2)nc2ccccc12
AC50 [1]: 0.501 µM [rising, full curve]
AC50 [2]: 0.794 µM [rising, full curve]

CCOc1ccc2c(c1)-c1c(ssc1=S)C(C)(C)N2C
AC50 [1]: 25.1 µM [rising, single point]

O=S(=O)(Nc1cccc2ccccc12)c1cccc2nonc12
AC50 [1]: 25.1 µM [falling, single point]
AC50 [2]: 35.5 µM [falling, single point]

O=C(CSc1cccc[n+]1[O-])NC(=O)c1ccc(OC(F)F)cc1
AC50 [2]: 10 µM [falling, partial curve, poor fit]

CCOc1ccc(N=c2cc(-c3ccc(OC)cc3)oc3ccccc23)cc1
AC50 [2]: 11.2 µM [rising, partial curve, poor fit]

CS(=O)(=O)c1nc(-c2ccc(F)cc2)cc(C(F)(F)F)n1
AC50 [1]: 7.08 µM [falling, partial curve]
AC50 [2]: 5.01 µM [falling, full curve]

COc1cc(S(=O)(=O)Nc2ccc(C)cc2)ccc1N=Cc1c(C)c(C#N)c(=O)n(C)c1O
AC50 [1]: 35.5 µM [rising, single point]

COc1ccc(Nc2ncnc3scc(-c4ccc(OC)cc4)c23)cc1
AC50 [2]: 15.8 µM [rising, single point]

Cc1cc(N2C(=O)NC(=O)CC2C)c(C)cc1C(C)C (stereo not given)
AC50 [2]: 35.5 µM [rising, single point]

Cc1nc2ccc(NC(=O)c3ccc(F)c(S(=O)(=O)N4CCOCC4)c3)cc2s1
AC50 [1]: 8.91 µM [rising, partial curve]
AC50 [2]: 11.2 µM [rising, partial curve]

— PubChem BioAssay AID1487 (National Center for Advancing Translational Sciences (NCATS), 2009)
